From PubChem BioAssay AID504834 (National Center for Advancing Translational Sciences (NCATS), 2011)
Screen size: about 320,000 compounds; about 22,000 (6.9%) were called active. The inconclusive results got no clear call from the source; some entries with a clear call stand among them for comparison. Calls follow the shape of the dose curve; as a rule, active = well fitted inhibition curve with a large enough effect; inconclusive = small, poorly fitted or top-dose-only effect, or another doubt; inactive = no such curve, though single readings can be large or run the other way. Potencies of inconclusive entries are doubtful fits and often do not repeat.

assay: Primary qHTS for delayed death inhibitors of the malarial parasite plastid, 96 hour incubation; conditions: P. falciparum luciferase reporter growth; series mostly up to 28.7 µM; activity change, negative = inhibition: at the top concentration
Outline: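 P. falciparum expressing integrated firefly luciferase grown in erythrocytes (2% hematocrit, 0.05% parasitemia final) with compounds for 96 hours at 37 C, 5% CO2. Growth inhibition read as loss of luminescence after adding luciferase detection reagent.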
% is scaled to controls: 0 for no effect and ±100 for the full control effect; potency is read from the fitted curve at half-maximal effect.

Question: For `Cc1cc(C)n(-c2nc3ccccc3c(=O)n2OCC(=O)OCc2ccccc2)n1`, which Potency is on record?
Answer: The Potency was inconclusive: 10.4 µM [inhibitor, single point].

Question: Which Potency does the source give for `CCc1nnc(NC(=O)c2ccc(S(=O)(=O)N(CCOC)CCOC)cc2)s1` here?
Answer: Its Potency is inconclusive: 10.4 µM [inhibitor, partial curve, poor fit].

Question: For `O=C(NCc1ccccc1F)c1ccc(S(=O)(=O)N2CCCCCC2)cc1`, which Potency is on record?
Answer: Its Potency is inconclusive: 10.4 µM [inhibitor, partial curve].

Question: For `O=C(CC1(O)C(=O)Nc2cc(Cl)cc(Cl)c21)c1ccncc1` (centres undefined), which “activity change, negative = inhibition” value is on record?
Answer: The value was inactive: -28.1%.

Question: With `Cc1cnc(CNC(=O)CC2C(=O)NCCN2Cc2cccc(F)c2F)cn1` (centres undefined) as the compound, how does the Potency read?
Answer: Its Potency is inconclusive: 16.5 µM [inhibitor, single point].

Question: For `Cc1cccc(N(C(=O)c2nsc(Cl)c2Cl)C(C(=O)NC2CCCC2)c2ccc(O)cc2)c1` (centres undefined), which Potency is on record?
Answer: The Potency was inconclusive: 11.7 µM [inhibitor, single point].

Question: Which Potency does the source give for `CCCOc1ccc(CNC(=O)C2CCN(c3nn4c(=O)cc(C)nc4s3)CC2)cc1` here?
Answer: Its Potency is active: 11.7 µM.

Question: For `CCOC(=O)C(CCCCOc1ccc([N+](=O)[O-])cc1)C(=O)OCC`, which Potency is on record?
Answer: The Potency was inconclusive: 2.94 µM [inhibitor, full curve].

Question: With `COc1ccc(S(=O)(=O)N2c3cc(C)ccc3OCC2C(C)(C)C)cc1` (centres undefined) as the compound, how does the Potency read?
Answer: The Potency was inconclusive: 14.7 µM [inhibitor, single point].

Question: With `COc1cccc(NC(=O)Nc2nc(SC)ns2)c1` as the compound, how does the “activity change, negative = inhibition” value read?
Answer: Its value is inactive: 91.1%.

Question: With `COC(=O)c1c(-c2c(Cl)cccc2Cl)noc1C(=O)NNC(=O)N(C)C` as the compound, how does the “activity change, negative = inhibition” value read?
Answer: Its value is inactive: 36.5%.

Question: Which Potency does the source give for `CC(C)C(C(=O)Nc1nccs1)c1ccccc1` (centres undefined) here?
Answer: Its Potency is inconclusive: 9.28 µM [inhibitor, partial curve].

Question: Which Potency does the source give for `Nc1ccccc1C(=O)NNc1ncc(C(F)(F)F)cc1Cl` here?
Answer: Its Potency is inconclusive: 4.15 µM [inhibitor, partial curve].

Question: For `COc1ccc(N2CCN(C(=O)CNC(=O)c3ccccc3Cl)CC2)cc1`, which “activity change, negative = inhibition” value is on record?
Answer: Its value is inactive: 6.83%.

Question: With `COc1ccc(OC)c(C(c2nnnn2Cc2ccccc2)N2CCC(C(N)=O)CC2)c1` (centres undefined) as the compound, how does the “activity change, negative = inhibition” value read?
Answer: Its value is inactive: 0%.

Question: With `CN(C(=O)CCc1nc2ccccc2s1)c1ccccc1` as the compound, how does the “activity change, negative = inhibition” value read?
Answer: Its value is inactive: 23.7%.

Question: With `COC(=O)C(Cc1ccccc1)NC(=O)CCC(=O)NC(C)CCc1ccccc1` (centres undefined) as the compound, how does the Potency read?
Answer: The Potency was inconclusive: 13.1 µM [inhibitor, single point].

Question: With `Cc1ccc(Cl)c(OCCCN(C)Cc2ccccc2)c1` as the compound, how does the Potency read?
Answer: Its Potency is inconclusive: 5.22 µM [inhibitor, partial curve, poor fit].

Question: With `C=C1CCC[C@]2(C)C[C@H]3OC(=O)C(CN(Cc4ccc(OC)c(OC)c4)CC(C)O)[C@H]3CC12` (some centres undefined) as the compound, how does the Potency read?
Answer: The Potency was inconclusive: 13.1 µM [inhibitor, single point].

Question: For `O=C1Nc2ccccc2C(O)(C(=O)NC2CC2)N1c1ccc(Cl)c(Cl)c1` (centres undefined), which Potency is on record?
Answer: The Potency was inconclusive: 4.15 µM [inhibitor, partial curve].

Question: Which “activity change, negative = inhibition” value does the source give for `O=C1CC(c2ccccc2)=Nc2ccc(Br)cc2N1` here?
Answer: Its value is inactive: 42.6%.

Question: With `O=C(C1CCC(=O)N(C2CC2)C1)N(CCO)Cc1ccccc1` (centres undefined) as the compound, how does the Potency read?
Answer: Its Potency is inconclusive: 8.28 µM [inhibitor, partial curve, poor fit].

Question: For `CC1=NN(C(=O)c2ccc(C)cc2)C(O)(C(F)(F)OC(F)(F)F)C1` (centres undefined), which Potency is on record?
Answer: Its Potency is inconclusive: 2.33 µM [inhibitor, full curve, poor fit].

Question: For `CC(C)c1[nH]nc2c1C(C(C)C)C(C#N)=C(N)O2` (centres undefined), which Potency is on record?
Answer: The Potency was active: 7.38 µM.

Question: For `CCN(CC)C(=O)C1CCCc2c1[nH]c1ccc(Cl)cc21` (centres undefined), which Potency is on record?
Answer: The Potency was inconclusive: 0.465 µM [inhibitor, partial curve, poor fit].

Question: With `COc1cc(O)c(C(CC(=O)N2CCCC(C)C2)c2ccc(N(C)C)cc2)c(OC)c1` (centres undefined) as the compound, how does the Potency read?
Answer: The Potency was inconclusive: 18.5 µM [inhibitor, single point].

Question: Which Potency does the source give for `COc1ccccc1NC(=O)C1CCN(c2ncnc3c2nc2n3CCCCC2)CC1` here?
Answer: The Potency was active: 10.4 µM.

Question: Which Potency does the source give for `N/C(=N\OC(=O)CSc1ccccc1)c1ccncc1` here?
Answer: Its Potency is inconclusive: 13.1 µM [inhibitor, single point].

Question: Which “activity change, negative = inhibition” value does the source give for `Cc1ccnc(NC(=O)c2oc3ccccc3c2C)c1` here?
Answer: Its value is inactive: 3.68%.

Question: Which Potency does the source give for `Brc1ccc(COn2ccnc2)cc1` here?
Answer: The Potency was inconclusive: 8.28 µM [inhibitor, partial curve, poor fit].

Question: For `O=c1oc2ccccc2c2c1C1O[C@](c3ccsc3)(Cc3c1ccc1ccccc31)O2`, which Potency is on record?
Answer: Its Potency is inconclusive: 0.338 µM [inhibitor, full curve].

Question: For `COc1cc(-c2noc(CCC(=O)Nc3cccnc3)n2)cc(OC)c1OC`, which Potency is on record?
Answer: The Potency was inconclusive: 13.1 µM [inhibitor, partial curve, poor fit].

Question: For `CC(=O)Nc1ccc(C(=O)COC(=O)C2CCCCC2)c(F)c1`, which “activity change, negative = inhibition” value is on record?
Answer: Its value is inactive: 22.2%.

Question: Which Potency does the source give for `CN1CCN(c2nc3c(c(=O)[nH]c(=O)n3C)n2CCSc2nc3ccccc3s2)CC1` here?
Answer: The Potency was inconclusive: 18.5 µM [inhibitor, single point].

Question: For `COc1ccc(/C=N/NC(=S)Nc2cc(S(=O)(=O)N3CCOCC3)ccc2N2CCOCC2)cc1O`, which Potency is on record?
Answer: Its Potency is inconclusive: 2.62 µM [inhibitor, partial curve, poor fit].

Question: With `COc1ccc(OCC(=O)Nc2ccccc2C(=O)NC2CC2)cc1` as the compound, how does the “activity change, negative = inhibition” value read?
Answer: The value was inactive: -6.18%.

Question: For `O=C(Nc1ccc(F)cc1Cl)c1ccc2c(=O)n3c(nc2c1)CCC3`, which “activity change, negative = inhibition” value is on record?
Answer: Its value is inactive: -1.2%.

Question: With `COc1ccc(/C(C)=N/NC(=O)c2ccc(CSc3nncn3C)cc2)cc1` as the compound, how does the Potency read?
Answer: Its Potency is active: 4.15 µM.

Question: With `COc1ccc(CC2(CO)CCN(Cc3nc(C(C)C)cs3)CC2)cc1` as the compound, how does the Potency read?
Answer: Its Potency is inconclusive: 13.1 µM [inhibitor, partial curve, poor fit].

Question: For `Cc1ccc(-n2c3c(c(O)c(-c4ccccc4)c2=O)C(=O)CC(C)(C)C3)cc1`, which Potency is on record?
Answer: Its Potency is inconclusive: 13.1 µM [inhibitor, partial curve].

Question: For `Cc1cccc(NC(=O)C2CCCN2C(=O)NC2CCCCC2)c1` (centres undefined), which “activity change, negative = inhibition” value is on record?
Answer: The value was inactive: -19.8%.

Question: For `COc1ccc(C(=O)NCc2ccc(C)cc2)cc1S(=O)(=O)N1CCCc2ccccc21`, which Potency is on record?
Answer: Its Potency is inconclusive: 7.38 µM [inhibitor, single point].

Question: Which Potency does the source give for `COCCCNC(=O)C1CCCN(S(C)(=O)=O)C1` (centres undefined) here?
Answer: Its Potency is inconclusive: 8.28 µM [inhibitor, partial curve, poor fit].

Question: Which Potency does the source give for `CCSc1nnc(N2C(=O)CC(c3ccsc3)C3=C2CC(C)(C)CC3=O)s1` (centres undefined) here?
Answer: The Potency was inconclusive: 1.04 µM [inhibitor, partial curve, poor fit].
